PubChem BioAssay AID720505, Drosophila RNAi Screening Center – 2013
The deposit covers about 20,000 reagents; below is a random part of those that have a named target and a result. In the full data, about 2,100 (10%) were called active. 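Raw plate signals without normalisation; calls rest on control-based scores that were not deposited; replicate 2 separates called from uncalled poorly.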 Reagents against one gene are numbered here. A plus sign joins genes that one reagent is predicted to hit. Reagent sequences are not shown. Not stated in the record: the amount of reagent, the time to read-out.

- Aim: 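Fly regulators or components of the CRAC channel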 (primary screen)
- Cells: Drosophila S2R+ cells
- Knock-down reagent: long dsRNA against Drosophila genes
- Challenge: thapsigargin (2 µM) in calcium-free buffer to empty internal stores, then 2 mM calcium added back
- Measurement: 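Stores emptied by 2 µM thapsigargin without calcium, then 2 mM calcium re-added; fluo-4 fluorescence followed by FLIPR in 384-well plates, per-well averaged endpoint, raw; two screen passes, some wells retested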
- Direction: calcium signal and retest calcium signal: higher = more calcium entry after store depletion
- Hit rule: 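Knock-downs counted as hits when calcium entry dropped relative to STIM1 positive and Rho1 negative controls present on each plate; roughly 1500 genes called, with reductions of differing size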
- Calls: active = called as lowering calcium entry; inactive = not called

Target gene	dsRNA no.	calcium signal, replicate 1	calcium signal, replicate 2	retest calcium signal, replicate 1	retest calcium signal, replicate 2	Call
Pvf1 (PDGF- and VEGF-related factor 1)	1	152	113			inactive
mst (misato)	1	92.6	117			inactive
CG31207	1	105	198			inactive
CG4815	1	206	202			inactive
CG13197	1	114	239			inactive
CG32645	1	124	88.7			inactive
CG32645	2	71.2	123			active
CG13631	1	148	218			inactive
CG13631	2	137	105			inactive
Catsup (Catecholamines up)	1	156	87.1			inactive
CG13314	1	156	114			inactive
Rbm13 (RNA-binding motif protein 13)	1	66.5	209			active
ppk23 (pickpocket 23)	1	71	92.2			active
CG5644	1	79.2	52.4			inactive
ND-MNLL (NADH dehydrogenase (ubiquinone) MNLL subunit)	1	72.3	133			active
CG3649	1	124	228			inactive
CG18428	1	187	202			inactive
Btk (Bruton tyrosine kinase)	1	182	141			inactive
Btk (Bruton tyrosine kinase)	2	141	307			inactive
Btk (Bruton tyrosine kinase)	3	106	167			inactive
CG9702	1	185	201			inactive
Acer (Angiotensin-converting enzyme-related)	1	79.8	70.7			inactive
Achl (Achilles)	1	93.1	140			inactive
ck (crinkled)	1	107	102			inactive
CG7367	1	96.1	145			inactive
lncRNA:CR32385 (long non-coding RNA:CR32385)	1	95.3	164			inactive
CG33003	1	80.2	161			inactive
Gr32a (Gustatory receptor 32a)	1	203	155			inactive
Gmer (GDP-4-keto-6-deoxy-D-mannose 3,5-epimerase/4-reductase)	1	161	79.6			inactive
SLO2 (slowpoke 2)	1	87.8	137			inactive
SLO2 (slowpoke 2)	2	132	145			inactive
SLO2 (slowpoke 2)	3	106	130			inactive
SLO2 (slowpoke 2)	4	112	151			inactive
SLO2 (slowpoke 2)	5	108	142			inactive
SLO2 (slowpoke 2)	6	82.1	133			inactive
Targ (Tarag)	1	133	150			inactive
clumsy	1	50.5	162			inactive

The list goes on; the last 10 above are carried over.
Target gene	dsRNA no.	calcium signal, replicate 1	calcium signal, replicate 2	retest calcium signal, replicate 1	retest calcium signal, replicate 2	Call
Gr32a (Gustatory receptor 32a)	1	203	155			inactive
Gmer (GDP-4-keto-6-deoxy-D-mannose 3,5-epimerase/4-reductase)	1	161	79.6			inactive
SLO2 (slowpoke 2)	1	87.8	137			inactive
SLO2 (slowpoke 2)	2	132	145			inactive
SLO2 (slowpoke 2)	3	106	130			inactive
SLO2 (slowpoke 2)	4	112	151			inactive
SLO2 (slowpoke 2)	5	108	142			inactive
SLO2 (slowpoke 2)	6	82.1	133			inactive
Targ (Tarag)	1	133	150			inactive
clumsy	1	50.5	162			inactive
Nek2	1	170	110	151	92.2	inactive
Polr3G (RNA polymerase III subunit G)	1	203	139			inactive
CG8326	1	171	159			inactive
CG4576	1	117	162			inactive
RfC4 (Replication factor C subunit 4)	1	66.3	142			active
CG33758	1	128	88.9			inactive
nec (necrotic)	1	166	120			inactive
Spt6	1	68.2	77.3			active
mon2 (monensin sensitivity 2)	1	151	154			inactive
CG4592	1	97	140			inactive
CG5888	1	111	145			inactive
Set	1	104	159			inactive
CG9920	1	126	131			inactive
CG13747	1	109	99.7			inactive
cact (cactus)	1	94.6	141			inactive
CG14764	1	101	92			inactive
CG14764	2	137	123			inactive
CG14764	3	83.1	155			inactive
CG11247	1	100	97.4	187	144	inactive
CG11247	2	131	210			inactive
Gyc88E (Guanylyl cyclase at 88E)	1	96.9	196			inactive
mag (magro)	1	137	132			inactive
CG3407	1	107	167			inactive
CG13033	1	131	162			inactive
CG12964	1	152	204	90.3	119	inactive
CG12964	2	109	183			inactive
CG15337	1	317	146			inactive
CG15337	2	107	149			inactive
Hmu (Hemomucin)	1	164	124			inactive
CG11414	1	194	112			inactive
beat-IIIb (beaten path IIIb)	1	113	127			inactive
upd2 (unpaired 2)	1	85.9	158	120	130	inactive
CG4704	1	257	190			inactive
Eps-15 (Epidermal growth factor receptor pathway substrate clone 15)	1	181	81.6			inactive
CG6665	1	116	87.5			inactive
CG31776	1	172	89.9			inactive
CG15124	1	188	165			inactive
mspo (M-spondin)	1	98.8	181			inactive
CG15475	1	191	93.4			inactive
sl (small wing)	1	156	113			inactive
sl (small wing)	2	142	125			inactive
CG11357	1	111	73			inactive
Septin1 (Septin 1)	1	101	109			inactive
Skp2 + CG1103	1	99.2	87.9			inactive
Skp2 + CG1103	2	108	251			inactive
CG33771	1	97.2	98.8			inactive
